Experimental data as given in patent US20230051797A1, “METHOD FOR RECOVERING EXTRACELLULAR VESICLE AND BLOOD COLLECTION VESSEL” (FUJIREBIO INC., priority 2019, published 2023).

Test system: CD9, the surface marker protein of extracellular vesicle (EV)
Test: Study of concentrations of chelating agent and surfactant (CD9 in supernatant, Example 4)
Design: species or system human
Conditions: Tergitol 15-S-40 0%
Procedure: To 0.01 g/mL of magnetic particles in 10 mM MES buffer (pH 5.0), 0.2 mg/mL of a mouse anti-CD9 monoclonal antibody (Fujirebio Inc.) that recognizes an extracellular vesicle (EV) surface marker CD9, was added. Then, the resulting solution was gently stirred at 25° C. for one hour for incubation. After the reaction, the magnetic particles were magnetically collected and washed with a washing solution (50 mM Tris buffer, 150 mM NaCl2, 2.0% BSA, pH 7.2) in order to obtain anti-CD9 antibody solid-phased particles. Each antibody solid-phased particle was suspended in a particle diluent (50 mM Tris buffer, 1 mM EDTA-2Na, 0.1% NaN3, 2.0% BSA, pH 7.2) in order to obtain each antibody solid-phased particle solution.
Desalted alkaline phosphatase (ALP) was mixed with N-(4-maleimidobutyryloxy)-succinimide (GMBS) (final concentration 0.3 mg/mL) and the resulting solution was allowed to stand at 30° C. for one hour for maleimidation of ALP. Next, in a coupling reactant solution (100 mM phosphate buffer, 1 mM EDTA-2Na, pH 6.3), Fab's of mouse anti-CD9 monoclonal antibody was mixed with maleimidized ALP at a molar ratio of 1: 1, and reacted at 25° C. for one hour. The reactant solution was subjected to purification using Superdex 200 column chromatography (General Electric Company) to obtain ALP-labeled anti-CD9 antibody. Each ALP-labeled antibody was suspended in a labeled antibody diluent (50 mM MES buffer, 150 mM NaCl2, 0.3 mM ZnCl2, 1 mM MgCl2, 0.1% NaN3, 2.0% BSA, pH 6.8) to obtain each labeled antibody solution.
20 μL of the sample for measurement and 50 μL of the anti-CD9 antibody solid-phased particle solution were dispensed into the reaction vessel and stirred. Then, the resulting solution was incubated at 37° C. for 8 minutes (primary reaction), and B/F separation and washing were carried out. 50 μL of the ALP-labeled antibody was dispensed into the reaction vessel, the resulting solution was stirred and then incubated at 37° C. for 8 minutes, and B/F separation and washing were carried out. Then, 200 μL of Lumipulse (registered trademark) substrate solution (Fujirebio Inc.) containing 3-(2′-spiroadamantane)-4-methoxy-4-(3″-phosphoryloxy)phenyl-1,2-dioxetane disodium salt (AMPPD) serving as a chemiluminescent substance was dispensed into the reaction chamber. The resulting solution was stirred and then incubated at 37° C. for 4 minutes for the measurement of luminescence intensity using luminometer. A count value was obtained as the measured value. The luminescence intensity was measured using a fully automated chemiluminescent enzyme immunoassay system (Lumipulse L2400 (Fujirebio Inc.)).
Antibodies recognizing the same epitope in CD9 were used as the antibody solid-phased on the magnetic particle and the ALP-labeled antibody. […]

With O=C(O)CN(CCOCCOCCN(CC(=O)O)CC(=O)O)CC(=O)O [EGTA, glycol ether diamine tetraacetic acid] the “CD9 Count” value (EGTA 10 mM) was 4671, the “CD9 Count” value (EGTA 50 mM) was 8886 and the “CD9 Count” value (EGTA 100 mM) was 16084. For the same compound, the “CD9 Count” value (EGTA 200 mM) was 21812.
